This passage reports binding results from article PMC10943099.

The chains behind the UniProt entries cited, without tags or fusion partners.
UniProt O75175: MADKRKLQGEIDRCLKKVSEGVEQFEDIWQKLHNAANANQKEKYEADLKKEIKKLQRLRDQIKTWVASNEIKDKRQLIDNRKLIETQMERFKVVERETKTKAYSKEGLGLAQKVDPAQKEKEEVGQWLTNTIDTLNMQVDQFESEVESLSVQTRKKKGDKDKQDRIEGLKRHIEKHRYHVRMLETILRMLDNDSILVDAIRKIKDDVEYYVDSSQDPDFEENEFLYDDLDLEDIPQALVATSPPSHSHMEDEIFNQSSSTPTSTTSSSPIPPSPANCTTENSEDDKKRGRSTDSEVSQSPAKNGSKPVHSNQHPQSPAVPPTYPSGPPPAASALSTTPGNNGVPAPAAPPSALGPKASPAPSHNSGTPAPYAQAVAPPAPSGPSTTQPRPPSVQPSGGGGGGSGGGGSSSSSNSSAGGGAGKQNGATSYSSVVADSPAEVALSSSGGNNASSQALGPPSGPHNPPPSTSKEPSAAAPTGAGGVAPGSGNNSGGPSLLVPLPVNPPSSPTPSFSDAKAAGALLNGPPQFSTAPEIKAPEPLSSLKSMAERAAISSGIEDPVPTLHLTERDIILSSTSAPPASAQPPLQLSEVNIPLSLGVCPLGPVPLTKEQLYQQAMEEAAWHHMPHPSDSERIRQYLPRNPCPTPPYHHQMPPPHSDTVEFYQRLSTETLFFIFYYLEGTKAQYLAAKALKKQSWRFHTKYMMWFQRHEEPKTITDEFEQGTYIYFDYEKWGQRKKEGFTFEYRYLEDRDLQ
UniProt P29692: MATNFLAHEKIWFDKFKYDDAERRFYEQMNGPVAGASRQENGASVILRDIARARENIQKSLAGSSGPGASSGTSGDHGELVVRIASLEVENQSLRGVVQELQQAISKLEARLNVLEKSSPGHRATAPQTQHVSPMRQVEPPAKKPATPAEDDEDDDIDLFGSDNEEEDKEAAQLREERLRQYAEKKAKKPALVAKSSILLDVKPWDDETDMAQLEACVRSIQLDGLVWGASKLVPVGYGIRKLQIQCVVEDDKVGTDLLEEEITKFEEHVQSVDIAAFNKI

No constants are given. Whether binding was seen depends on the method and setting. In cells and extracts the contact can be indirect. Some binding calls cover weakened binding; strength is not graded here.

Assay [1] addresses full-length CNOT3 (exogenous, detected with Flag antibody) (human) (UniProt O75175). Description: proximity ligation; PLA on MOLM13 lines overexpressing CNOT3-FL, NOT box truncated CNOT3 or empty vector, Flag antibody to detect exogenous CNOT3 and antibodies against EEF1E and EEF1D.
Assay [2] addresses CNOT3, subunit of the CCR4-NOT complex (endogenous) (human (endogenous in MOLM13)) (UniProt O75175). Description: proximity ligation; Duolink in situ PLA on fixed MOLM13 cells with antibodies against endogenous CNOT3 and EEF1E or EEF1D; control (scramble) shRNA vs. CNOT3-depleted KD-33 and KD-37 cells.

Take “EEF1D (endogenous) (from UniProt P29692 1-281)”: the binding entry in assay [1] and in assay [2] was “binds” throughout.

B1: EEF1E, the auxiliary component of the multi-synthetase complex (endogenous) (protein, UniProt O43324 1-174)
chain: MAAAAELSLLEKSLGLSKGNKYSAQGERQIPVLQTNNGPSLTGLTTIAAHLVKQANKEYLLGSTAEEKAIVQQWLEYRVTQVDGHSSKNDIHTLLKDLNSYLEDKVYLTGYNFTLADILLYYGLHRFIVDLTVQEKEKYLNVSRWFCHIQHYPGIRQHLSSVVFIKNRLYTNSH
In the case of B1, the binding result in assay [1] and in assay [2] was “binds” throughout.
